Paper PMC5727232
For some assays here: Protein sequences can lack the tags named with them. For some assays here: The exact form of at least one protein or probe is not confirmed. For some assays here: At least one verdict was read from the data and is not stated in words by the source.

Chains of the proteins cited; added tags and fusions are not shown. Residues count along the entry.
UniProt Q15797, 10-142: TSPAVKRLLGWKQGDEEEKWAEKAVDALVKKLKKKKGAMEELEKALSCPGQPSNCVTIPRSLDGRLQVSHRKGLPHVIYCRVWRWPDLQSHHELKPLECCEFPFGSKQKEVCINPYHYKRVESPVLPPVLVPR
UniProt Q99717, 11-143: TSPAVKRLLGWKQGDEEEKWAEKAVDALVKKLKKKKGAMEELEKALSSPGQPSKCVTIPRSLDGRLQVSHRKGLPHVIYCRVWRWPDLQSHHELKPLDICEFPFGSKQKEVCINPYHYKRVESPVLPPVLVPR
UniProt O15198, 14-144: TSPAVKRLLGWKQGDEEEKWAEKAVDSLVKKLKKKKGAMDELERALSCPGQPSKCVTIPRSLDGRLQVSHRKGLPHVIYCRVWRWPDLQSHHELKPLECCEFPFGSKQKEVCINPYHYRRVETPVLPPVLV

Legend:
[1] = target: T1, Smad4 MH1 domain (Homo sapiens) (UniProt Q13485); assay: EMSA; conditions: EMSA: 20 mM Tris pH 7.2, 80 mM NaCl, 2 mM DTT, 7.5 nM Cy5-DNA, 30 min room temperature, gel at 20 C; recombinant protein; residues 10-140; protein details: N-terminal His, cleaved (TEV or 3C); label: 5' Cy5
T1 sequence (looked up): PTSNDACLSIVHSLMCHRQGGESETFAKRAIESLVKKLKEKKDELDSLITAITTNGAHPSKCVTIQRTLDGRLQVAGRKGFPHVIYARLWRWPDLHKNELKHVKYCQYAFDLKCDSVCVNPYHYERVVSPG

[2] = tested on: Amphimedon Smad4 MH1 domain (Amphimedon queenslandica); assay: EMSA; conditions: EMSA: 20 mM Tris pH 7.2, 80 mM NaCl, 2 mM DTT, 7.5 nM Cy5-DNA, 30 min room temperature, gel at 20 C, recombinant protein, protein details: N-terminal His-TEV, cleaved
[3] = target: Smad1 MH1 domain (Homo sapiens) (UniProt Q15797); assay: EMSA; conditions: EMSA: 20 mM Tris pH 7.2, 80 mM NaCl, 2 mM DTT, 7.5 nM Cy5-DNA, 30 min room temperature, gel at 20 C, recombinant protein, residues 10-142, protein details: N-terminal His-TEV, cleaved
[4] = target: Smad5 MH1 domain (Homo sapiens) (UniProt Q99717); assay: EMSA; conditions: EMSA: 20 mM Tris pH 7.2, 80 mM NaCl, 2 mM DTT, 7.5 nM Cy5-DNA, 30 min room temperature, gel at 20 C, recombinant protein, residues 11-143, protein details: N-terminal His-TEV, cleaved
[5] = target: Smad8/9 MH1 domain (Homo sapiens) (UniProt O15198); assay: EMSA; conditions: EMSA: 20 mM Tris pH 7.2, 80 mM NaCl, 2 mM DTT, 7.5 nM Cy5-DNA, 30 min room temperature, gel at 20 C, recombinant protein, residues 14-144, protein details: N-terminal His-TEV, cleaved
[6] = target: T2, Trichoplax Smad4 MH1 domain (Trichoplax adhaerens) (UniProt B3S7S5); assay: EMSA; conditions: EMSA: 20 mM Tris pH 7.2, 80 mM NaCl, 2 mM DTT, 7.5 nM Cy5-DNA, 30 min room temperature, gel at 20 C; recombinant protein; residues 1-151; protein details: N-terminal His-TEV, cleaved; label: 5' Cy5 in EMSA
T2 sequence (looked up): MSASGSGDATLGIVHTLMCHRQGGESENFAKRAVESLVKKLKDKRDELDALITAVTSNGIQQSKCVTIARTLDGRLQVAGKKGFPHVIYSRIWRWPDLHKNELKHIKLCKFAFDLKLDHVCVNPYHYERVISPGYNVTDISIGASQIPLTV

[7] = target: T2, Trichoplax Smad4 MH1 domain (Trichoplax adhaerens); assay: X-ray crystallography (2.43 A); conditions: same GGCGC DNA as human Smad4 complex; recombinant protein; residues 1-151; protein details: N-terminal His-TEV, cleaved
[8] = target: T1, Smad4 MH1 domain (Homo sapiens); assay: ITC; conditions: ITC: Tris pH 7.0, 20 C; recombinant protein; residues 10-140; protein details: N-terminal His, cleaved (TEV or 3C)

**Q.** Does “ATTAGGCCGCCCGCCCAGCA (double strand) [GC2 core]” bind [1]?
**A.** Result: binds

**Q.** Does “TGCAGTCTAGACTGCA (double strand) [SBE / GTCT]” bind ([2]; label: 5' Cy5 in EMSA)?
**A.** Result: binds

**Q.** Does “TGCAGTCTAGACTGCA (double strand) [SBE / GTCT]” bind ([3]; label: 5' Cy5 in EMSA)?
**A.** Result: binds

**Q.** Does “TGCAGTCTAGACTGCA (double strand) [SBE / GTCT]” bind ([4]; label: 5' Cy5 in EMSA)?
**A.** Result: binds

**Q.** Does “TGCAGTCTAGACTGCA (double strand) [SBE / GTCT]” bind ([5]; label: 5' Cy5 in EMSA)?
**A.** Result: binds

**Q.** Does “TGCAGTCTAGACTGCA (double strand) [SBE / GTCT]” bind [6]?
**A.** Result: binds

**Q.** Which results are given for “TGCAGGCGCCTGCA (double strand) [BRE-GGCGCC]”?
**A.** binding result ([3]; label: 5' Cy5): binds; binding result ([4]; label: 5' Cy5): binds; binding result ([5]; label: 5' Cy5): binds

**Q.** Does “ATGCGGGCGCGCCCGCAT (double strand) [GGCGC-XRAY-Smad4 18mer]” bind [7]?
**A.** Result: binds

**Q.** How did the Kd [8] turn out when “TGCAGGCGCGCCTGCA (double strand) [GGCG / GGCGC-XRAY-Smad3 16mer]” was run?
**A.** Its Kd is 160 nM.

**Q.** Does “TGTGTCAGACGCTCAGCT (double strand) [CAGAC-DE]” bind [1]?
**A.** Result: binds

**Q.** Does “TTAAGGCCGGGGCCGCGCCGGGAATT (double strand) [GC1 core]” bind ([2]; label: 5' Cy5)?
**A.** Result: binds

**Q.** Does “TTAAGGCCGGGGCCGCGCCGGGAATT (double strand) [GC1 core]” bind ([3]; label: 5' Cy5)?
**A.** Result: binds

**Q.** Does “TTAAGGCCGGGGCCGCGCCGGGAATT (double strand) [GC1 core]” bind [1]?
**A.** Result: binds

**Q.** Does “TTAAGGCCGGGGCCGCGCCGGGAATT (double strand) [GC1 core]” bind ([4]; label: 5' Cy5)?
**A.** Result: binds

**Q.** Does “TTAAGGCCGGGGCCGCGCCGGGAATT (double strand) [GC1 core]” bind ([5]; label: 5' Cy5)?
**A.** Result: binds
